Assay results: publication PMC4650726
Results are given in words; binding and its absence hold for the method and conditions named. Binding seen in cells or lysates may run through a third protein. Some entries that bind do so weakly or less than the wild type.

The chains behind the UniProt entries cited, without tags or fusion partners. Residues count along the entry.
UniProt P10747, residues 19-220: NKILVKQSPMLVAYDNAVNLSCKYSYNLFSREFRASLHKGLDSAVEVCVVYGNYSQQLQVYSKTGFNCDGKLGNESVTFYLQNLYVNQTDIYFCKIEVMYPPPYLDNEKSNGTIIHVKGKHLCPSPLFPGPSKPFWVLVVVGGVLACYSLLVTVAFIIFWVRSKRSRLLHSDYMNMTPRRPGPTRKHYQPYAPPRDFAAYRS

Target: T1, Acid sphingomyelinase (human (endogenous in naive CD4+ T cells from blood)) (UniProt P17405)
T1 sequence: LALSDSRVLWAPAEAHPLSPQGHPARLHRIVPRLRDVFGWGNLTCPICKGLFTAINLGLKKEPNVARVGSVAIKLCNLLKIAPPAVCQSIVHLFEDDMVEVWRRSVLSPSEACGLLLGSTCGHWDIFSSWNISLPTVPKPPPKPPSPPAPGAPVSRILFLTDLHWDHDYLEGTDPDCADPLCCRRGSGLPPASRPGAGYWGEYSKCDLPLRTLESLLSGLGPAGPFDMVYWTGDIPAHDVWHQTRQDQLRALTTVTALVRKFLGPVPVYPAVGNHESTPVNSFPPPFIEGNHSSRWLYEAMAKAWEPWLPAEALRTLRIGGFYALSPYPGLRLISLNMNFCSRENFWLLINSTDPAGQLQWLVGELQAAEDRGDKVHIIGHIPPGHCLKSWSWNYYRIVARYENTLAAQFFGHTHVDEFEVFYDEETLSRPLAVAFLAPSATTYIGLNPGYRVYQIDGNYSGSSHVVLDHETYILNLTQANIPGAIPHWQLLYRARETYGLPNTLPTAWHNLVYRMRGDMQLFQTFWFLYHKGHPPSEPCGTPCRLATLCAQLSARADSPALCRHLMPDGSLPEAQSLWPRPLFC
Assay: co-IP; naive CD4+ T-cell lysates in RIPA buffer (1 mM EDTA, 50 mM Tris-HCl pH 7.4, 150 mM NaCl, 1% NP-40, 0.25% sodium deoxycholate); mouse anti-human ASM antibody 3 h at 4 °C, Protein G-Sepharose 4B; blots for CD3 and CD28; mouse IgG or beads only as capture controls

binding: binds
Substance: CD28 (from UniProt P10747 19-220) (receptor)
